Measured values as given in the supplement of paper PMC10849652.
The other results are listed elsewhere or left out.

The chains behind the UniProt entries cited, without tags or fusion partners. Where a name states a change or a piece, a line headed by the entry shows the natural chain unless it says otherwise.
UniProt Q96EK9: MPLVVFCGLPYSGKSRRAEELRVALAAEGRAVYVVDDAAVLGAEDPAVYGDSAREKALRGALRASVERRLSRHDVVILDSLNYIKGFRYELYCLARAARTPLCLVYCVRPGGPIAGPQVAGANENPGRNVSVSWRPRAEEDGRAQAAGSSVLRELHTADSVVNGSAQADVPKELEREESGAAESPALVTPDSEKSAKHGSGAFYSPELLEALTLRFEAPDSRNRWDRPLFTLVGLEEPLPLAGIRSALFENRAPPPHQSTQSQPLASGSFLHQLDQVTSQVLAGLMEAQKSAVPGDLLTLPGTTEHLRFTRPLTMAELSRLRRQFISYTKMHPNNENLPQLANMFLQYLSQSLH
UniProt E9PP15: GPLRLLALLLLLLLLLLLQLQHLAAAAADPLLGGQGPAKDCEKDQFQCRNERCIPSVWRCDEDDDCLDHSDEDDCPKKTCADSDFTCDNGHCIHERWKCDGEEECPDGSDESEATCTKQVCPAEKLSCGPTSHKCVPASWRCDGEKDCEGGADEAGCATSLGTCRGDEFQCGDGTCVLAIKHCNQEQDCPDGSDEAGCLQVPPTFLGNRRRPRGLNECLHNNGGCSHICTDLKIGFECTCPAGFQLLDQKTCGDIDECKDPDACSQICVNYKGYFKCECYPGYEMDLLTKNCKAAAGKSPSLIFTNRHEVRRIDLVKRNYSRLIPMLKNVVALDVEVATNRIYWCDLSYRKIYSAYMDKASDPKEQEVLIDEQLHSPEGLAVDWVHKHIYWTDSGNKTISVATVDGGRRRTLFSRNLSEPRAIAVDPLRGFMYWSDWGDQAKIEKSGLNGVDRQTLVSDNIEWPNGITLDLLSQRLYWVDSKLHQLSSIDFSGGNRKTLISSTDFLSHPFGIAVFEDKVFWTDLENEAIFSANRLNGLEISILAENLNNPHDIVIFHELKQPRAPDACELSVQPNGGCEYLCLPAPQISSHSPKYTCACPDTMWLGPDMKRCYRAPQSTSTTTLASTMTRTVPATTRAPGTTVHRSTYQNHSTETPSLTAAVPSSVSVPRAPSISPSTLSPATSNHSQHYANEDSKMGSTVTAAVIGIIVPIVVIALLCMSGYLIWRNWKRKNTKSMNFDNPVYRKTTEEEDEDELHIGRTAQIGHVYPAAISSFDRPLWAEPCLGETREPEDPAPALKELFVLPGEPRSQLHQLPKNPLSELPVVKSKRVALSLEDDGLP
UniProt Q86WA8: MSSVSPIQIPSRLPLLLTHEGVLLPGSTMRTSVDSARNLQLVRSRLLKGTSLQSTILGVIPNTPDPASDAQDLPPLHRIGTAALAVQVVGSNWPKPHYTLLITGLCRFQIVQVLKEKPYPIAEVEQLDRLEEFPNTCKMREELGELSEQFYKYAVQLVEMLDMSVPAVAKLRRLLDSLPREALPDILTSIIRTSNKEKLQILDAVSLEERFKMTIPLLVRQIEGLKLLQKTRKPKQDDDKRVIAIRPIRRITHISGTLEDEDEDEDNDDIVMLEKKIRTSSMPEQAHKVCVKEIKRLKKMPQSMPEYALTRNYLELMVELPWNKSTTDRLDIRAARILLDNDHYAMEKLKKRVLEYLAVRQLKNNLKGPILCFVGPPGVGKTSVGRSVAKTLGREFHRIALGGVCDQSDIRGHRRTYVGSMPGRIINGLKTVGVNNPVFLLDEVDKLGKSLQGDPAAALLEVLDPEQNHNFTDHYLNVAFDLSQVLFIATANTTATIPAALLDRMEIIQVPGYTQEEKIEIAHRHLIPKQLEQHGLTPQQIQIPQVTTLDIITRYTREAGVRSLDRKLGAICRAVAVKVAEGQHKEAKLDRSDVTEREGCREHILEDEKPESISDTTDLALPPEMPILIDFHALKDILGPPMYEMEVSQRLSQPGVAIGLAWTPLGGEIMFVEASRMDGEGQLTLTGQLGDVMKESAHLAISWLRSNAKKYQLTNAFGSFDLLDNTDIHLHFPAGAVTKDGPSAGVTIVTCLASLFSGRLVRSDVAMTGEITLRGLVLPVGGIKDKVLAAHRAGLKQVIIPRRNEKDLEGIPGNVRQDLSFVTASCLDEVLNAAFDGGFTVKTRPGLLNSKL
UniProt P53671: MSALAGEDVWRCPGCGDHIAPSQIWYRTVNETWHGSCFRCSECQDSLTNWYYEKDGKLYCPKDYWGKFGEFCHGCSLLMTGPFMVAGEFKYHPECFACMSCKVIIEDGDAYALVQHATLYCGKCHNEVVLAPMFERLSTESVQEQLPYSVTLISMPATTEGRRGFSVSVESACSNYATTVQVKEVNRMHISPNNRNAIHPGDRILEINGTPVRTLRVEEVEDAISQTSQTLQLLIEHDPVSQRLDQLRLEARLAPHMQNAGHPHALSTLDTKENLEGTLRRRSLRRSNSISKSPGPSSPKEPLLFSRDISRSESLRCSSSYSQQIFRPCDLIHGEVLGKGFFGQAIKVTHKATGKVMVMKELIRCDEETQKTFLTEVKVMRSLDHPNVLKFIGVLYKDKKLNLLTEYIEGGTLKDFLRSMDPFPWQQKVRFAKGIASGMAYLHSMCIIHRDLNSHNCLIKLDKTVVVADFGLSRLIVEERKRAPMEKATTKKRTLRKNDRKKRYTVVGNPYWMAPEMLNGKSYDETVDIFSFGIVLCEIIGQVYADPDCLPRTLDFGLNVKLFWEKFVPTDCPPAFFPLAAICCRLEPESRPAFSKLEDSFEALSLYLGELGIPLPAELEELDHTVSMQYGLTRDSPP
UniProt Q7L5N7: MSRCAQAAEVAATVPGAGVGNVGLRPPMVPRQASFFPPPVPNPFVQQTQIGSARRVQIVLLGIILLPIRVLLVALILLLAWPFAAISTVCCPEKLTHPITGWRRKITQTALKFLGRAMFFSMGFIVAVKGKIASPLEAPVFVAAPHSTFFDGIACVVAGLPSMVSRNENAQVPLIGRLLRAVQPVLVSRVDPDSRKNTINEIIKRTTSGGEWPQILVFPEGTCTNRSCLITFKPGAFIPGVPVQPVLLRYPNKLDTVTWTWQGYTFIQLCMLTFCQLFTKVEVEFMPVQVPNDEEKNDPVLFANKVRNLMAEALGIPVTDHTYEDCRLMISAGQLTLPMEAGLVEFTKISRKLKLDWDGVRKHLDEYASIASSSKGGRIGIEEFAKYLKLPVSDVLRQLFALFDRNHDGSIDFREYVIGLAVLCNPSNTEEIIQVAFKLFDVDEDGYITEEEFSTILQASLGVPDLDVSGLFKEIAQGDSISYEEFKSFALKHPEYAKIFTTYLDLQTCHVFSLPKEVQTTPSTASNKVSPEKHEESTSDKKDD
UniProt Q5T3J3: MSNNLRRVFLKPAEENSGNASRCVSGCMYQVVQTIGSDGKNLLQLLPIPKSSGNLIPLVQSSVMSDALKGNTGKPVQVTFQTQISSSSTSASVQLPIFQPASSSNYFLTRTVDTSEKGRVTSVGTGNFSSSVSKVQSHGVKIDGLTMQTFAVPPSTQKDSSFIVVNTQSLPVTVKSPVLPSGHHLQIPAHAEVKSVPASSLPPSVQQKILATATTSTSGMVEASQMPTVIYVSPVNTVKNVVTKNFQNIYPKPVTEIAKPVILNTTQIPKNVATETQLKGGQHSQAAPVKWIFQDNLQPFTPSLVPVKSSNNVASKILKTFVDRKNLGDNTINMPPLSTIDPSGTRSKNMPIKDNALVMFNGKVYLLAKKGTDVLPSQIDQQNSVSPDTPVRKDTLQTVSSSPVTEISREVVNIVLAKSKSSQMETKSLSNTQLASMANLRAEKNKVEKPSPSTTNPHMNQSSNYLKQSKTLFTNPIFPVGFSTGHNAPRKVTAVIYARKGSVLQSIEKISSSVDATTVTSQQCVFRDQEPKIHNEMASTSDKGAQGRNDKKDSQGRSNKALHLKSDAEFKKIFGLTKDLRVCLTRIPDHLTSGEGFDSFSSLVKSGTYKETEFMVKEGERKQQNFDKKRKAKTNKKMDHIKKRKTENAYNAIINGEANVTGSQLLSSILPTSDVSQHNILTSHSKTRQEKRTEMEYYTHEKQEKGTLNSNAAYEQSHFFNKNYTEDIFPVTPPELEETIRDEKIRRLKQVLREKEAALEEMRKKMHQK
UniProt P49257: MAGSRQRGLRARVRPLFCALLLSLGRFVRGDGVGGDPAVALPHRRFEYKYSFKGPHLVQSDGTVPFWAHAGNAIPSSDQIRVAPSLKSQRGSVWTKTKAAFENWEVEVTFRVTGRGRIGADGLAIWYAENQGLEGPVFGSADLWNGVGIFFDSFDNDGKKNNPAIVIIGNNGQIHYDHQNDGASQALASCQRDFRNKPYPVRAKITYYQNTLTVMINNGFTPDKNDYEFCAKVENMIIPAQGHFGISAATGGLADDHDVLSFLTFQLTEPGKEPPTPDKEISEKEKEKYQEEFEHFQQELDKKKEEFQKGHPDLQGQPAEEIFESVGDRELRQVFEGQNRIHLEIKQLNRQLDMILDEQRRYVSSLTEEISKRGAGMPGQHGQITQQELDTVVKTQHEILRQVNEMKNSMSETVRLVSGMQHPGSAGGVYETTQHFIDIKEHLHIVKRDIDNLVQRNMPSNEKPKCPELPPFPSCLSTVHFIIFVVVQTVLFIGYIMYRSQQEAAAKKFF
UniProt Q14693: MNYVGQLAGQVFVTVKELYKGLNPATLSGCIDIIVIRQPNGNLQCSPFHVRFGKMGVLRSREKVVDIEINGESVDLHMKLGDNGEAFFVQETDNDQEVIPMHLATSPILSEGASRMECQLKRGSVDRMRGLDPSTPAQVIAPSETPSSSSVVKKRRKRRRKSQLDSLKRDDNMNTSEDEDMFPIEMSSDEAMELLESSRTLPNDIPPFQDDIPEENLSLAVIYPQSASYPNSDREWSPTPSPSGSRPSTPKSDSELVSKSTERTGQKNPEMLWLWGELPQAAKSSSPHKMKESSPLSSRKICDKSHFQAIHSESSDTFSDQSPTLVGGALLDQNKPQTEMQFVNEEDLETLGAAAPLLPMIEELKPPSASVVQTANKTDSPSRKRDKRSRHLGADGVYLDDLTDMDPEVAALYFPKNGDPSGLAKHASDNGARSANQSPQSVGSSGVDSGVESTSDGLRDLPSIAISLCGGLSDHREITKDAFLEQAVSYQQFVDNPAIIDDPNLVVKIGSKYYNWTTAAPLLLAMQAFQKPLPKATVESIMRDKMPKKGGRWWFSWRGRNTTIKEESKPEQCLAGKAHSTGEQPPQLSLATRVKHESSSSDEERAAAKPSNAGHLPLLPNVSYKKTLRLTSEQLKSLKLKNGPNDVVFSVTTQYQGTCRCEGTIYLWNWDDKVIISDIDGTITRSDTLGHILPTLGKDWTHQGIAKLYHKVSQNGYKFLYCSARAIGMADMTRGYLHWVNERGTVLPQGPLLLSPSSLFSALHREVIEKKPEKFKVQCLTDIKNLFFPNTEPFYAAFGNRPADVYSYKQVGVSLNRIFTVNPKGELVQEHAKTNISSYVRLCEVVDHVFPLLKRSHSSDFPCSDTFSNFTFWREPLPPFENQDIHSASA
UniProt P30533, whole entry, looked up: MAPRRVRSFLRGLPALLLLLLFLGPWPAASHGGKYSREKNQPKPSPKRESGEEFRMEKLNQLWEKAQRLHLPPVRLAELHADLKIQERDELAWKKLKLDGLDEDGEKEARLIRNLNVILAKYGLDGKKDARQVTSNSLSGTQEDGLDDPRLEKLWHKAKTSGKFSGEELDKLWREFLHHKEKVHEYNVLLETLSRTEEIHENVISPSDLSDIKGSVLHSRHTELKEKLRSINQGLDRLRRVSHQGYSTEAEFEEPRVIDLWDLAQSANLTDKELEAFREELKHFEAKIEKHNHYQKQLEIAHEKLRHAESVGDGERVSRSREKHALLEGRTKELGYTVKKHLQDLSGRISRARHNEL
UniProt Q9GZZ8: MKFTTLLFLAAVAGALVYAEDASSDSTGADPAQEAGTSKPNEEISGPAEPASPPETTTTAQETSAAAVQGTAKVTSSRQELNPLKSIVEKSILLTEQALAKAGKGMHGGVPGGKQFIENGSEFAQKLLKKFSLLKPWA
UniProt O60294: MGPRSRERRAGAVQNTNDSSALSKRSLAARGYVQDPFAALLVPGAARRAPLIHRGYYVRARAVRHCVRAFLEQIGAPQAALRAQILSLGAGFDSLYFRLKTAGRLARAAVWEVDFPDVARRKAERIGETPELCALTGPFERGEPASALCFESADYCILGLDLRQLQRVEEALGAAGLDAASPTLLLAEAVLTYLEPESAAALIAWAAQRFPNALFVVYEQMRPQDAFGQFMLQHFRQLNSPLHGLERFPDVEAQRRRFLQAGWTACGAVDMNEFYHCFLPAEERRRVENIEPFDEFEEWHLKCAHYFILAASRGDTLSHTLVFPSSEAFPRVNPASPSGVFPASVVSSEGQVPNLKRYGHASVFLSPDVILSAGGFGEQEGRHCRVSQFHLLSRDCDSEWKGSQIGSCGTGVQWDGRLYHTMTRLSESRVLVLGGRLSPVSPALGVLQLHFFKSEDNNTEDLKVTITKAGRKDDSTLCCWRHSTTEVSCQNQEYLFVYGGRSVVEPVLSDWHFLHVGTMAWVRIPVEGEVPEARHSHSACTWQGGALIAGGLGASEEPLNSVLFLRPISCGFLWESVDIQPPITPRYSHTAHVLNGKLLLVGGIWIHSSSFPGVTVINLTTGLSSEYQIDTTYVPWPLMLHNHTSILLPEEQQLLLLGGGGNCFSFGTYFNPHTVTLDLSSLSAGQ

What was measured:
Experiment in all cases: log2 fold change, soluble protein after heating vs DMSO (PISA); higher = thermal stabilisation; K562 cells, 10 uM, 30 min; active = over 0.2 and 3.5 SD of the protein, either way, in both replicates (recomputed)
[1] = compound: CC1=C(C=C(C=C1)NC(=O)C2=CC(=CC=C2)C(C)(C)C#N)NC3=CC4=C(C=C3)N=CN(C4=O)C
Outline: (§1)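 Quantification of soluble protein used TMTpro 16plex LC-MS/MS, with channel sums equalised. Samples were the supernatant after 21,000xg for 90 min of pooled aliquots from K562 cells (2×10^6 cells/mL) treated with 10 μM compound for 30 min, heated for 3 min over 48°C-58°C, and extracted in PBS with 0.5% NP-40 at 4°C. Values, from duplicates, describe thermal stability against control samples on a log2 fold-change scale.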

[2] = compound: CC1=C(C=C(C=C1)NC(=O)C2=CC(=CC=C2)N(C)C)NC(=O)C3=CC=C(C=C3)O
Outline: as §1

[3] = compound: CC1=CC=C(C=C1)SC2=C3C=C(SC3=CN=C2)C(=O)N
Outline: as §1

[4] = compound: CC1=NC(=CC=C1)C2=C(N=C(N2)C(C)(C)C)C3=CC4=NC=CN=C4C=C3
Outline: as §1

Nexturastat A = compound: CCCCN(Cc1ccc(C(=O)NO)cc1)C(=O)Nc1ccccc1 [Nexturastat A]
Outline: as §1

vemurafenib = compound: CCCS(=O)(=O)Nc1ccc(F)c(C(=O)c2c[nH]c3ncc(-c4ccc(Cl)cc4)cc23)c1F [vemurafenib]
Outline: as §1

[5] = compound: CCCS(=O)(=O)Nc1ccc(F)c(C(=O)c2c[nH]c3ncc(Cl)cc23)c1F
Outline: as §1

[6] = compound: CCCc1cc(C)[nH]c(=O)c1CNC(=O)c1cc(-c2ccnc(N3CCN(C)CC3)c2)cc2c1cnn2C(C)C
Outline: as §1

givinostat = compound: CCN(CC)Cc1ccc2cc(COC(=O)Nc3ccc(C(=O)NO)cc3)ccc2c1 [givinostat]
Outline: as §1

barasertib = compound: CCN(CCCOc1ccc2c(Nc3cc(CC(=O)Nc4cccc(F)c4)[nH]n3)ncnc2c1)CCOP(=O)(O)O [barasertib]
Outline: as §1

Measured: log2 fold change

KTI12 (UniProt Q96EK9)
inactive: [1] 0.033 | [2] -0.019 | [3] 0.012 | [4] 0.063 | Nexturastat A 0.098 | vemurafenib 0.128 | [5] 0.025 | [6] 0.019 | givinostat 0.145 | barasertib 0.033

LRP8 (UniProt E9PP15)
inactive: [1] 0.031 | [2] -0.06 | [3] 0.013 | [4] -0.226 | Nexturastat A 0.16 | vemurafenib 0.015 | [5] -0.063 | [6] -0.008 | givinostat 0.33 | barasertib 0.073

LAMTOR5 (UniProt O43504)
inactive: [1] 0.044 | [2] -0.026 | [3] -0.006 | [4] -0.065 | Nexturastat A 0.156 | vemurafenib 0.13 | [5] 0.039 | [6] 0.134 | givinostat 0 | barasertib 0.049

LAP3 (UniProt P28838)
inactive: [1] 0.007 | [2] 0 | [3] 0.052 | [4] 0.026 | Nexturastat A -0.133 | vemurafenib 0.025 | [5] 0.027 | [6] -0.066 | givinostat 0.07 | barasertib -0.006

LAMTOR3 (UniProt Q9UHA4)
inactive: [1] 0.061 | [2] -0.021 | [3] 0.03 | [4] -0.033 | Nexturastat A 0.087 | vemurafenib -0.035 | [5] 0.009 | [6] 0.069 | givinostat 0.01 | barasertib -0.008

LMTK2 (UniProt Q8IWU2)
inactive: [1] 0.058 | [2] -0.03 | [3] -0.078 | [4] -0.036 | Nexturastat A 0.189 | vemurafenib -0.053 | [5] -0.249 | [6] -0.031 | givinostat 0.075 | barasertib -0.028

LONP2 (UniProt Q86WA8)
inactive: [1] 0.173 | [2] -0.119 | [3] 0.08 | [4] 0.009 | Nexturastat A -0.083 | vemurafenib 0.128 | [5] -0.137 | [6] 0.013 | givinostat -0.05 | barasertib -0.056

LACTB2 (UniProt Q53H82)
inactive: [1] 0.024 | [2] -0.009 | [3] 0.028 | [4] 0.039 | Nexturastat A -0.019 | vemurafenib -0.046 | [5] -0.056 | [6] -0.026 | givinostat -0.118 | barasertib 0.007

LIMK2 isoform 3 (UniProt P53671)
inactive: [1] -0.195 | [2] 0.016 | [3] -0.197 | [4] 0.045 | Nexturastat A 0 | vemurafenib -0.224 | [5] -0.154 | [6] -0.527 | givinostat 0.144 | barasertib 0.035

Reprinted at random: two entries already listed, in no set order.
LACTB2 (UniProt Q53H82)
inactive: [1] 0.024 | [2] -0.009 | [3] 0.028 | [4] 0.039 | Nexturastat A -0.019 | vemurafenib -0.046 | [5] -0.056 | [6] -0.026 | givinostat -0.118 | barasertib 0.007

LAMTOR5 (UniProt O43504)
inactive: [1] 0.044 | [2] -0.026 | [3] -0.006 | [4] -0.065 | Nexturastat A 0.156 | vemurafenib 0.13 | [5] 0.039 | [6] 0.134 | givinostat 0 | barasertib 0.049

Further results follow:

LEPR (UniProt P48357)
inactive: [1] 0.019 | [2] -0.032 | [3] -0.032 | [4] -0.015 | Nexturastat A -0.035 | vemurafenib 0.009 | [5] -0.041 | [6] 0.015 | givinostat 0.025 | barasertib 0.025

LPCAT2 (UniProt Q7L5N7)
inactive: [1] 0.051 | [2] -0.076 | [3] 0.021 | [4] 0.145 | Nexturastat A -0.102 | vemurafenib 0.051 | [5] -0.027 | [6] -0.055 | givinostat 0.079 | barasertib 0.068

LRIF1 (UniProt Q5T3J3)
inactive: [1] -0.089 | [2] 0.04 | [3] -0.083 | [4] -0.01 | Nexturastat A 0.144 | vemurafenib 0.016 | [5] -0.028 | [6] -0.013 | givinostat -0.042 | barasertib -0.129

LANCL1 (UniProt O43813)
inactive: [1] -0.025 | [2] 0.015 | [3] 0 | [4] 0.017 | Nexturastat A -0.03 | vemurafenib 0.02 | [5] -0.06 | [6] -0.04 | givinostat -0.033 | barasertib -0.019

LMAN1 (UniProt P49257)
inactive: [1] -0.024 | [2] -0.017 | [3] -0.004 | [4] -0.02 | Nexturastat A 0 | vemurafenib -0.021 | [5] 0.009 | [6] -0.044 | givinostat 0.003 | barasertib 0.009

LPIN1 isoform 7 (UniProt Q14693)
inactive: [1] -0.022 | [2] 0.018 | [3] -0.022 | [4] -0.026 | Nexturastat A -0.023 | vemurafenib -0.004 | [5] 0.015 | [6] 0.029 | givinostat 0.012 | barasertib 0.023

LIN7C (UniProt Q9NUP9)
inactive: [1] -0.043 | [2] 0.003 | [3] -0.019 | [4] -0.008 | Nexturastat A 0.036 | vemurafenib -0.002 | [5] -0.021 | [6] 0.01 | givinostat -0.015 | barasertib 0.007

LRPAP1 (UniProt P30533)
inactive: [1] -0.029 | [2] -0.058 | [3] -0.028 | [4] -0.021 | Nexturastat A -0.076 | vemurafenib -0.028 | [5] -0.023 | [6] -0.018 | givinostat -0.15 | barasertib 0.015

LARP1 (UniProt Q6PKG0)
inactive: [1] 0.01 | [2] 0.032 | [3] -0.035 | [4] 0.029 | Nexturastat A 0.142 | vemurafenib -0.033 | [5] -0.03 | [6] 0.046 | givinostat 0.012 | barasertib -0.006

LACRT (UniProt Q9GZZ8)
inactive: [1] -0.027 | [2] 0.001 | Nexturastat A -0.29 | vemurafenib -0.171 | [6] 0.107 | barasertib 1.02

LMBRD1 (UniProt Q9NUN5)
inactive: [1] 0.073 | [2] 0.02 | [3] 0.023 | Nexturastat A -0.034 | vemurafenib -0.101 | [5] -0.057 | [6] -0.077 | givinostat 0.05 | barasertib -0.039

LAMP2 (UniProt P13473)
inactive: [1] 0 | [2] 0.093 | [3] -0.043 | [4] 0.066 | Nexturastat A -0.104 | vemurafenib 0.05 | [5] 0.048 | [6] -0.028 | givinostat -0.02 | barasertib 0.007

LIG3 (UniProt P49916)
inactive: [1] -0.053 | [3] 0.006 | [5] -0.165 | [6] -0.162 | givinostat 0.416

LRBA, A0A494BZW2
inactive: [1] -0.082 | [2] 0.06 | [3] -0.048 | [4] 0.078 | Nexturastat A -0.264 | [5] 0.272 | [6] 0.038 | givinostat 0.264 | barasertib 0.026

LPL (UniProt P06858)
inactive: [1] 0.011 | [3] -0.047 | [4] 0.046 | vemurafenib -0.141 | [5] -0.122 | [6] -0.229 | givinostat 0.049

LPIN3 isoform 2 (UniProt Q9BQK8)
inactive: [1] -0.152 | [2] 0.005 | [3] -0.04 | Nexturastat A -0.014 | vemurafenib -0.001 | [5] -0.069 | [6] -0.014 | givinostat -0.006 | barasertib -0.054

LCMT2 (UniProt O60294)
inactive: [1] 0.071 | [3] 0.248 | [4] 0.096 | Nexturastat A 0.293 | vemurafenib 0.213 | [5] 0.269 | [6] -0.011 | givinostat 0.005 | barasertib 0.068
